Data published in paper PMC11152120.
These are yes or no findings as the source states them, for the method shown. In cells and extracts the contact can be indirect. Some results given as binding are weak or reduced against the parent protein; the word gives no strength.

Amino acid sequences for entries named in this document (tags omitted). Residues count along the entry.
UniProt P16070, residues 21-742: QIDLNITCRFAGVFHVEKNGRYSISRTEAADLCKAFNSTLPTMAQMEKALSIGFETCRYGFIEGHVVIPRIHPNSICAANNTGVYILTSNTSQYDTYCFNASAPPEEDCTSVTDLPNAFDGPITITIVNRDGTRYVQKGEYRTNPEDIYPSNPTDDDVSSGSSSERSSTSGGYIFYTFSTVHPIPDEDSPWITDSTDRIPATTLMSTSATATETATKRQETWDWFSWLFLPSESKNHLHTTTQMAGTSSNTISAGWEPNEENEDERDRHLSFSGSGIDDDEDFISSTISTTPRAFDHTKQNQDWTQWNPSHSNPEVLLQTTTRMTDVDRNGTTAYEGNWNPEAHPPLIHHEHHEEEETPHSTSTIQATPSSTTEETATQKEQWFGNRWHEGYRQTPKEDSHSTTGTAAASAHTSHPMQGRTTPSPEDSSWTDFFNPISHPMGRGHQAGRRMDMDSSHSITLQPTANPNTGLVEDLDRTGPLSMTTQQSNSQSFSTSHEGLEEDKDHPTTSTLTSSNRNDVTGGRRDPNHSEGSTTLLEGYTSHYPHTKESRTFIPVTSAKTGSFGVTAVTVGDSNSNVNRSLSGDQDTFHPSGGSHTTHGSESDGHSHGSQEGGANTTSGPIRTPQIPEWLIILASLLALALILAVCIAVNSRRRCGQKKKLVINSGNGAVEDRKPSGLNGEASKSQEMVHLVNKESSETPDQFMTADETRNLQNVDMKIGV
UniProt Q05397: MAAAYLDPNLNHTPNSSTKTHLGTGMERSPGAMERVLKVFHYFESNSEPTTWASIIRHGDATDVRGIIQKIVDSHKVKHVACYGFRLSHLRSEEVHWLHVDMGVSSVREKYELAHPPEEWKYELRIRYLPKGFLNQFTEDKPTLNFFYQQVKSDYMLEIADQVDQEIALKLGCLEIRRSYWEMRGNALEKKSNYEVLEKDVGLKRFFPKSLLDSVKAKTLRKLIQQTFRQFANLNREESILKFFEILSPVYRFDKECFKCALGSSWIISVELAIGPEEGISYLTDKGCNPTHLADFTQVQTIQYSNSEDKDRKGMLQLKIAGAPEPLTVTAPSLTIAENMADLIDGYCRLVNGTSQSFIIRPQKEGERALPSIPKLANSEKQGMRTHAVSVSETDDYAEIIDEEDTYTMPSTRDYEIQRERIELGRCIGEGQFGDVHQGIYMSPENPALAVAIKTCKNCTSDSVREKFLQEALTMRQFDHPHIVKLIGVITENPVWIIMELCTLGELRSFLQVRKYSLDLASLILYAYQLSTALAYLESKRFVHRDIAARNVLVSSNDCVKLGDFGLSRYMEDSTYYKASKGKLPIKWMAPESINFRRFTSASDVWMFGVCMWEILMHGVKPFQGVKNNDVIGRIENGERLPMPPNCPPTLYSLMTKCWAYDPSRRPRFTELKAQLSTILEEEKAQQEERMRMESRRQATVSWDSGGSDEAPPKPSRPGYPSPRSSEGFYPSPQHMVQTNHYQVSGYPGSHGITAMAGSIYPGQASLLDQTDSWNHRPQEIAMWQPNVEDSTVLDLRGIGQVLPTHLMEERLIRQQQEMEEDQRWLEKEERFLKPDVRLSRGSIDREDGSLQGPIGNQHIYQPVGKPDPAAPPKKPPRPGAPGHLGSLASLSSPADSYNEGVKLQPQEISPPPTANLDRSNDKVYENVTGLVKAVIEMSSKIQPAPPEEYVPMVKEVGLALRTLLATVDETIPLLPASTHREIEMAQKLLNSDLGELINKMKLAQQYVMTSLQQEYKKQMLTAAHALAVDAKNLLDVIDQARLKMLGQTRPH

Assays:
[1] = target: CD44, endogenous (human (endogenous in LM3 and Huh7)) (UniProt P16070); test: co-IP; endogenous proteins from LM3 and Huh7 whole-cell lysates (RIPA buffer with protease inhibitors); antibody overnight, Protein A/G agarose 4 h at 4°C, four washes, immunoblot; also in shControl/shHMMR and WT/CD44-ko LM3 cells
[2] = target: T1, Hyaluronan-mediated motility receptor (HMMR), endogenous (human (endogenous in LM3 and Huh7)) (UniProt O75330); test: as above
T1 sequence: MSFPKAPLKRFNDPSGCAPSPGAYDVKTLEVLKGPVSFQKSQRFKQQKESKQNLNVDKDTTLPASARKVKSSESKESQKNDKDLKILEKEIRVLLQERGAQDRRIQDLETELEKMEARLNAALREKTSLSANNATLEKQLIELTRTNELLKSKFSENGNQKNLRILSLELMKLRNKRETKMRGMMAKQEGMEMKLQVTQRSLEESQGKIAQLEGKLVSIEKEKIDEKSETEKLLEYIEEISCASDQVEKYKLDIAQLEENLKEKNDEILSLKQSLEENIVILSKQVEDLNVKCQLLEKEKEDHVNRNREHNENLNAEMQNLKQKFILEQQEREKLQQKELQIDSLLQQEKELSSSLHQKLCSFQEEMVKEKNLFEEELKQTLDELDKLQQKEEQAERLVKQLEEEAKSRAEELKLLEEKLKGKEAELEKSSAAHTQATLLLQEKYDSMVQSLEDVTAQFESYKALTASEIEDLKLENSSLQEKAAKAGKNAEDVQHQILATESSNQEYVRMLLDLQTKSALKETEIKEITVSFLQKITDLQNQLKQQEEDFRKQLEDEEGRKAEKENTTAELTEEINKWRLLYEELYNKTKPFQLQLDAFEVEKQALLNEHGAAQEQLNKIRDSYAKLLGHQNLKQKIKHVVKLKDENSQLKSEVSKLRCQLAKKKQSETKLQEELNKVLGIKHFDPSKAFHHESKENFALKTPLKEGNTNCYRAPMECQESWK

[3] = target: T1, Hyaluronan-mediated motility receptor (HMMR), endogenous (human (endogenous in LM3 and Huh7)); test: co-IP; anti-HMMR immunoprecipitation from the membrane component of LM3 and Huh7 cells (WT)

Molecule	binding [1]	binding [2]	binding [3]
FAK, endogenous (from UniProt Q05397 1-1052) (enzyme)	binds	–	–
CD44, endogenous (from UniProt P16070 21-742) (receptor)	–	binds	binds
Hyaluronan-mediated motility receptor (HMMR), endogenous (protein, UniProt O75330 1-724) MSFPKAPLKRFNDPSGCAPSPGAYDVKTLEVLKGPVSFQKSQRFKQQKESKQNLNVDKDTTLPASARKVKSSESKESQKNDKDLKILEKEIRVLLQERGAQDRRIQDLETELEKMEARLNAALREKTSLSANNATLEKQLIELTRTNELLKSKFSENGNQKNLRILSLELMKLRNKRETKMRGMMAKQEGMEMKLQVTQRSLEESQGKIAQLEGKLVSIEKEKIDEKSETEKLLEYIEEISCASDQVEKYKLDIAQLEENLKEKNDEILSLKQSLEENIVILSKQVEDLNVKCQLLEKEKEDHVNRNREHNENLNAEMQNLKQKFILEQQEREKLQQKELQIDSLLQQEKELSSSLHQKLCSFQEEMVKEKNLFEEELKQTLDELDKLQQKEEQAERLVKQLEEEAKSRAEELKLLEEKLKGKEAELEKSSAAHTQATLLLQEKYDSMVQSLEDVTAQFESYKALTASEIEDLKLENSSLQEKAAKAGKNAEDVQHQILATESSNQEYVRMLLDLQTKSALKETEIKEITVSFLQKITDLQNQLKQQEEDFRKQLEDEEGRKAEKENTTAELTEEINKWRLLYEELYNKTKPFQLQLDAFEVEKQALLNEHGAAQEQLNKIRDSYAKLLGHQNLKQKIKHVVKLKDENSQLKSEVSKLRCQLAKKKQSETKLQEELNKVLGIKHFDPSKAFHHESKENFALKTPLKEGNTNCYRAPMECQESWK	binds	–	–
